These results are taken from publication PMC11243337.

Amino acid sequences for entries named in this document (tags omitted). Residues count along the entry.
UniProt P24627, 20-708: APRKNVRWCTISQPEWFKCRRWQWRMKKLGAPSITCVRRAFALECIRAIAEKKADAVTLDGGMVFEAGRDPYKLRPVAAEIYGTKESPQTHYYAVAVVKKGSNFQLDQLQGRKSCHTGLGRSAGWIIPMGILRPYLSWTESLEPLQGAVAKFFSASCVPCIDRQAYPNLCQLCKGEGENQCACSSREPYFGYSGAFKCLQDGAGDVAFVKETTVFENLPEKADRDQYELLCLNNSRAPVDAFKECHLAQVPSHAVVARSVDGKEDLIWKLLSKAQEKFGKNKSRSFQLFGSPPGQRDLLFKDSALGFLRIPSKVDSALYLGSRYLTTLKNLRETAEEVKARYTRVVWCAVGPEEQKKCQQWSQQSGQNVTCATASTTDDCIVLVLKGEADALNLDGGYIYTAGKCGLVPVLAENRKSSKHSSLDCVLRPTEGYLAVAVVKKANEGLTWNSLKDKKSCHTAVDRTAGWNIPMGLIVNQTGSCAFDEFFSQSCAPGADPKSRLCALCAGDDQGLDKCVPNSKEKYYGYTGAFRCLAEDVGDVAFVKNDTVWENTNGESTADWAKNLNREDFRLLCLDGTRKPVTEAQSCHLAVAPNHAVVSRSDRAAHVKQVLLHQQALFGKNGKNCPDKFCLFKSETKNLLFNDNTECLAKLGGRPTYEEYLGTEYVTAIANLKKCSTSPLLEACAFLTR

pKd: −log10 of the molar value. Construct, isoform or probe ends are uncertain for at least one entry. For some of these results: Weaker means in comparison with the reference protein, sequence or condition of that experiment. For some of these results: At least one verdict rests on a figure or table, not on a statement of the authors.

Data set [1] deals with Lactoferrin (Lf) (bovine (cow's milk)) (UniProt P24627). As to the kind of experiment: not stated here (CE-SELEX work). The note with it: Lf species in cited work not stated here; Tris-EDTA pH 8.0, no added salt, 25 C, 10 min; 90 uL of 50 nM aptamer + 100 uL Lf (0-100 ug/mL); Ex 485/Em 528 nm. Specificity section; commercial protein; single-stranded DNA.
Data set [2] shares this target. As to the kind of experiment: fluorescence quenching (6-FAM). The note with it: Tris-EDTA pH 8.0, no added salt, 25 C, 10 min, 90 uL of 50 nM aptamer + 100 uL Lf (0-100 ug/mL), Ex 485/Em 528 nm. Specificity section, commercial protein, label: 3'-6-FAM, single-stranded DNA.

For the sequence “TGGTGCTGCCCCTAGTCTCCGGCTGATAGCTGCTTCTTGG [Lf aptamer (Qu's group, as cited)]”, the negative logarithm of the Kd (pKd) (commonly the negative decadic logarithm of the Kd, by convention in mol/L) in data set [1] was 7.68.
For the sequence “TGGTGCTGCCCCTAGTCTCCGGCTGATAGCTGCTTCTTGG [Lf aptamer, 3'-6-FAM]”, the binding result is “binds more weakly” in data set [2] (Mg2+ or Ca2+, 50 or 100 mM, stronger effect than monovalent); “binds more weakly” in data set [2] (Na+ or K+, 50 or 100 mM); “binds more weakly” in data set [2] (citrate buffer or borate buffer).
